± gives the standard deviation of the averaged measurements. Most values lie at the level of the controls, where differences are scatter.
Experiments:
Test in all cases: level (log10 ratio to DMSO vehicle control); higher = higher biomarker level / cell amount than vehicle control
[1] = compound: OCC(F)(F)C(F)(F)C(F)(F)CO [Hexafluoroamylene glycol]; conditions: 2200 nM; in DMSO
Method: (§1)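 BioMAP Diversity Plus panel of 12 human primary cell co-culture systems (3C, 4H, LPS, SAg, BT, BF4T, BE3C, CASM3C, HDF3CGF, KF3CT, MyoF, Mphg). Compounds were added 1 h before stimulation and left for 24 h (MyoF 48 h; BT 72 h for soluble read-outs or 6 d for IgG). Biomarkers were read by ELISA, cytotoxicity by SRB, PBMC viability and proliferation by Alamar Blue. Each well value was divided by the mean of 8 DMSO control wells on the same plate and log10 transformed; duplicate blinded samples were tested at 4 concentrations.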

[2] = compound: FC(F)(F)C(F)(F)C(F)(F)C(F)(F)C(F)(F)C(F)(F)I [Perfluoro-1-iodohexane]; conditions: in DMSO
Method: as §1

[3] = compound: FC(F)(I)C(F)(F)C(F)(F)C(F)(F)C(F)(F)C(F)(F)I [1,6-Diiodoperfluorohexane]; conditions: 2200 nM; in DMSO
Method: as §1

[4] = compound: FC(F)(F)C(F)(C(F)(F)F)C(F)(F)C(F)(F)CC1CO1 [3-(Perfluoro-3-methylbutyl)-1,2-propenoxide]; conditions: in DMSO
Method: as §1

[5] = compound: O=C(O)C=C(C(F)(F)F)C(F)(F)F [3,3-Bis(trifluoromethyl)-2-propenoic acid]; conditions: in DMSO
Method: as §1

[6] = compound: O=C(O)C(F)(F)C(F)(F)C(F)(F)C(F)(F)C(F)(F)C(F)(F)C(F)(F)C(F)(F)C(F)(F)C(F)(F)C(F)(F)C(F)(F)C(F)(F)F [Perfluorotetradecanoic acid]; conditions: in DMSO
Method: as §1

[7] = compound: C=CC(=O)OCC(F)(F)C(F)(F)C(F)(F)COC(=O)C=C [1H,1H,5H,5H-Perfluoro-1,5-pentanediol diacrylate]; conditions: 2200 nM; in DMSO
Method: as §1

[8] = compound: O=S(=O)(O)C(F)(F)C(F)(F)C(F)(F)C(F)(F)C(F)(F)C(F)(F)F [Perfluorohexanesulfonic acid]; conditions: 2200 nM; in DMSO
Method: as §1

[9] = compound: O=C(Cl)C(F)(F)C(F)(F)C(F)(F)C(=O)Cl [Hexafluoroglutaryl chloride]; conditions: 2200 nM; in DMSO
Method: as §1

[10] = compound: O=S(=O)(O)CCC(F)(F)C(F)(F)C(F)(F)C(F)(F)F [4:2 Fluorotelomer sulfonic acid]; conditions: 2200 nM; in DMSO
Method: as §1

[11] = compound: C=CC(=O)OCCC(F)(F)C(F)(F)C(F)(F)C(F)(F)F [2-(Perfluorobutyl)ethyl acrylate]; conditions: 2200 nM; in DMSO
Method: as §1

[12] = compound: OCCCC(F)(F)C(F)(F)C(F)(F)C(F)(F)C(F)(F)C(F)(F)C(F)(F)F [7:3 Fluorotelomer alcohol]; conditions: 2200 nM; in DMSO
Method: as §1

[13] = compound: C=CC(=O)OCCC(F)(F)C(F)(F)C(F)(F)C(F)(F)C(F)(F)C(F)(F)C(F)(F)C(F)(F)F [8:2 Fluorotelomer acrylate]; conditions: 2200 nM; in DMSO
Method: as §1

Row | Test System | level (log10) [1] | level (log10) ([2]; 2200 nM) | level (log10) ([2]; 6700 nM) | level (log10) ([2]; 20000 nM) | level (log10) ([2]; 60000 nM) | level (log10) [3] | level (log10) ([4]; 740 nM) | level (log10) ([4]; 2200 nM) | level (log10) ([5]; 2200 nM) | level (log10) ([5]; 6700 nM) | level (log10) ([5]; 20000 nM) | level (log10) ([5]; 60000 nM) | level (log10) ([6]; 740 nM) | level (log10) ([6]; 2200 nM) | level (log10) [7] | level (log10) [8] | level (log10) [9] | level (log10) [10] | level (log10) [11] | level (log10) [12] | level (log10) [13]
1 | SAg:SRB | 0.0055 ± 0.018 | 0.0045 ± 0.012 | -0.0075 ± 0.011 | -0.002 ± 0.0014 | -0.0045 ± 0.011 | 0.015 ± 0.02 | 0.004 ± 0.013 | 0.0125 ± 0.0092 | 0.011 ± 0.0057 | 0.0025 ± 0.0021 | -0.006 ± 0.0085 | -0.0275 ± 0.005 | -0.002 ± 0.0099 | -0.024 ± 0.0057 | 0.005 ± 0.025 | -0.0155 ± 0.012 | 0.0005 ± 0.015 | 0.0015 ± 0.0078 | 0.01 ± 0.0099 | -0.001 ± 0.011 | -0.006 ± 0.0042
2 | CASM3C:Serum Amyloid A | 0.0095 ± 0.021 | 0.0045 ± 0.0092 | 0.0035 ± 0.042 | 0.008 ± 0.035 | 0.007 ± 0.025 | -0.0035 ± 0.029 | 0.018 ± 0.054 | -0.0375 ± 0.016 | -0.0005 ± 0.00071 | -0.013 ± 0.021 | -0.0185 ± 0.0092 | -0.005 ± 0.038 | 0.0325 ± 0.018 | 0.0125 ± 0.067 | 0.007 ± 0.028 | -0.008 ± 0.092 | -0.0045 ± 0.047 | -0.0095 ± 0.022 | 0.0165 ± 0.057 | -0.0125 ± 0.015 | 0.0035 ± 0.015
3 | 3C:HLA-DR | -0.015 ± 0.016 | 0.005 ± 0.014 | 0.0025 ± 0.0035 | -0.011 ± 0.0057 | -0.001 ± 0.017 | -0.006 ± 0.0071 | 0.0135 ± 0.023 | 0.029 ± 0.0085 | 0.0025 ± 0.011 | -0.012 ± 0.014 | -0.0415 ± 0.039 | -0.189 ± 0.031 | 0.022 ± 0.0028 | 0.0075 ± 0.016 | 0.0025 ± 0.029 | -0.018 ± 0.064 | 0.001 ± 0.013 | -0.01 ± 0.021 | 0.02 ± 0.017 | 0.0005 ± 0.005 | 0.015 ± 0.028
4 | HDF3CGF:CXCL11/I-TAC | -0.0305 ± 0.035 | -0.013 ± 0.018 | -0.0215 ± 0.011 | -0.0305 ± 0.016 | -0.183 ± 0.15 | -0.043 ± 0.0085 | -0.004 ± 0.017 | -0.0125 ± 0.057 | -0.019 ± 0.017 | -0.038 ± 0.011 | -0.0555 ± 0.035 | -0.033 ± 0.054 | 0.005 ± 0.035 | 0.018 ± 0.028 | -0.344 ± 0.096 | -0.0015 ± 0.023 | 0.0035 ± 0.053 | -0.0415 ± 0.043 | -0.0245 ± 0.056 | -0.0355 ± 0.025 | 0 ± 0.028
5 | MyoF:CD106/VCAM-1 | -0.0105 ± 0.015 | -0.01 ± 0.023 | -0.031 ± 0.016 | -0.102 ± 0.064 | -0.337 ± 0.03 | -0.101 ± 0.015 | -0.0125 ± 0.0092 | -0.012 | -0.0545 ± 0.011 | -0.0825 ± 0.00071 | -0.145 ± 0.0021 | -0.291 ± 0.04 | -0.0115 ± 0.00071 | 0.0095 ± 0.00071 | -0.0745 ± 0.00071 | -0.0105 ± 0.022 | -0.0055 ± 0.033 | -0.016 | -0.034 ± 0.018 | -0.0125 ± 0.016 | -0.023 ± 0.0071
6 | KF3CT:MMP-9 | -0.016 ± 0.023 | -0.0205 ± 0.022 | -0.0225 ± 0.0064 | -0.0225 ± 0.0092 | -0.044 ± 0.0099 | -0.0405 ± 0.03 | -0.014 ± 0.047 | -0.027 ± 0.045 | -0.015 ± 0.023 | -0.029 ± 0.025 | -0.031 ± 0.041 | -0.078 ± 0.028 | 0.012 ± 0.024 | -0.003 ± 0.0042 | -0.006 ± 0.055 | 0.0075 ± 0.0021 | -0.0305 ± 0.019 | -0.0045 ± 0.022 | 0.011 | -0.026 ± 0.016 | -0.0275 ± 0.018
7 | BF4T:PAI-I | 0.0035 ± 0.028 | -0.012 ± 0.021 | -0.0095 ± 0.0035 | -0.02 ± 0.0042 | -0.006 ± 0.018 | 0.016 ± 0.023 | 0.003 ± 0.018 | 0.004 ± 0.034 | 0.0105 ± 0.013 | 0.0055 ± 0.0021 | 0.001 ± 0.0042 | -0.0055 ± 0.021 | 0.0175 ± 0.0021 | 0.0095 ± 0.00071 | -0.007 ± 0.0071 | 0.007 ± 0.028 | -0.003 ± 0.016 | 0.0045 ± 0.021 | 0.0035 ± 0.035 | -0.0045 ± 0.0092 | 0.0085 ± 0.018
8 | CASM3C:IL-6 | 0.007 ± 0.044 | 0.026 ± 0.018 | -0.0035 ± 0.012 | -0.0055 ± 0.0021 | 0.018 ± 0.0099 | -0.001 ± 0.017 | 0.012 ± 0.052 | -0.0245 ± 0.019 | -0.0385 ± 0.09 | -0.097 ± 0.045 | -0.148 ± 0.0071 | -0.189 ± 0.026 | 0.019 ± 0.044 | -0.0155 ± 0.015 | -0.007 ± 0.051 | 0.011 ± 0.068 | 0.0255 ± 0.046 | 0.022 ± 0.031 | 0.01 ± 0.042 | 0.0035 ± 0.05 | 0.0105 ± 0.04
9 | lMphg:sIL-10 | 0.0355 ± 0.084 | 0.02 ± 0.013 | -0.0575 ± 0.1 | -0.048 ± 0.0042 | -0.047 ± 0.0057 | -0.064 ± 0.065 | 0.022 ± 0.023 | -0.0075 ± 0.0078 | -0.158 ± 0.0085 | -0.2 ± 0.0071 | -0.325 ± 0.029 | -0.547 ± 0.028 | -0.0105 ± 0.029 | -0.039 | -0.011 ± 0.023 | 0.0425 ± 0.043 | -0.071 ± 0.044 | 0.063 ± 0.14 | 0.0355 ± 0.042 | -0.021 ± 0.0099 | -0.078 ± 0.0057
10 | lMphg:CD40 | -0.0065 ± 0.0064 | 0.014 ± 0.023 | -0.011 ± 0.0071 | -0.0265 ± 0.0035 | -0.0375 ± 0.013 | -0.0035 ± 0.019 | -0.0155 ± 0.0021 | 0.0045 ± 0.012 | -0.036 ± 0.0085 | -0.0255 ± 0.00071 | -0.0545 ± 0.0035 | -0.071 ± 0.014 | -0.037 ± 0.0099 | -0.02 ± 0.071 | -0.022 ± 0.024 | -0.0395 ± 0.059 | 0.036 ± 0.065 | -0.012 ± 0.016 | -0.0075 ± 0.026 | 0.008 ± 0.0014 | -0.0195 ± 0.026
11 | 4H:CD87/uPAR | 0.003 ± 0.014 | 0.004 ± 0.013 | -0.0035 ± 0.053 | 0.017 ± 0.062 | 0.036 ± 0.12 | -0.005 ± 0.0085 | 0.0075 ± 0.0078 | 0.014 ± 0.016 | -0.039 ± 0.027 | -0.053 ± 0.038 | -0.0455 ± 0.037 | -0.025 ± 0.062 | 0.016 ± 0.02 | 0.003 ± 0.04 | -0.043 ± 0.14 | -0.023 ± 0.014 | 0.006 ± 0.024 | 0.015 ± 0.017 | 0.0045 ± 0.052 | 0.018 ± 0.031 | -0.064 ± 0.02
12 | CASM3C:SRB | -0.001 ± 0.0071 | 0.008 ± 0.0014 | 0.0035 ± 0.013 | 0.0015 ± 0.0021 | -0.0015 ± 0.016 | 0.0095 ± 0.00071 | 0.001 ± 0.0085 | -0.007 ± 0.0085 | -0.0015 ± 0.018 | 0.0145 ± 0.016 | -0.0075 ± 0.0021 | -0.027 | 0.008 ± 0.013 | -0.0035 ± 0.0092 | 0.0045 ± 0.011 | -0.0045 ± 0.0064 | 0.0075 ± 0.00071 | 0.0045 ± 0.005 | 0.0045 ± 0.016 | 0.0085 ± 0.0078 | 0.014 ± 0.0099

Part of the list above, with tabs.
Row	Test System	level (log10) [1]	level (log10) ([2]; 2200 nM)	level (log10) ([2]; 6700 nM)	level (log10) ([2]; 20000 nM)	level (log10) ([2]; 60000 nM)	level (log10) [3]	level (log10) ([4]; 740 nM)	level (log10) ([4]; 2200 nM)	level (log10) ([5]; 2200 nM)	level (log10) ([5]; 6700 nM)	level (log10) ([5]; 20000 nM)	level (log10) ([5]; 60000 nM)	level (log10) ([6]; 740 nM)	level (log10) ([6]; 2200 nM)	level (log10) [7]	level (log10) [8]	level (log10) [9]	level (log10) [10]	level (log10) [11]	level (log10) [12]	level (log10) [13]
3	3C:HLA-DR	-0.015 ± 0.016	0.005 ± 0.014	0.0025 ± 0.0035	-0.011 ± 0.0057	-0.001 ± 0.017	-0.006 ± 0.0071	0.0135 ± 0.023	0.029 ± 0.0085	0.0025 ± 0.011	-0.012 ± 0.014	-0.0415 ± 0.039	-0.189 ± 0.031	0.022 ± 0.0028	0.0075 ± 0.016	0.0025 ± 0.029	-0.018 ± 0.064	0.001 ± 0.013	-0.01 ± 0.021	0.02 ± 0.017	0.0005 ± 0.005	0.015 ± 0.028
4	HDF3CGF:CXCL11/I-TAC	-0.0305 ± 0.035	-0.013 ± 0.018	-0.0215 ± 0.011	-0.0305 ± 0.016	-0.183 ± 0.15	-0.043 ± 0.0085	-0.004 ± 0.017	-0.0125 ± 0.057	-0.019 ± 0.017	-0.038 ± 0.011	-0.0555 ± 0.035	-0.033 ± 0.054	0.005 ± 0.035	0.018 ± 0.028	-0.344 ± 0.096	-0.0015 ± 0.023	0.0035 ± 0.053	-0.0415 ± 0.043	-0.0245 ± 0.056	-0.0355 ± 0.025	0 ± 0.028
